Chains of the proteins cited; added tags and fusions are not shown.
UniProt Q1MSJ5: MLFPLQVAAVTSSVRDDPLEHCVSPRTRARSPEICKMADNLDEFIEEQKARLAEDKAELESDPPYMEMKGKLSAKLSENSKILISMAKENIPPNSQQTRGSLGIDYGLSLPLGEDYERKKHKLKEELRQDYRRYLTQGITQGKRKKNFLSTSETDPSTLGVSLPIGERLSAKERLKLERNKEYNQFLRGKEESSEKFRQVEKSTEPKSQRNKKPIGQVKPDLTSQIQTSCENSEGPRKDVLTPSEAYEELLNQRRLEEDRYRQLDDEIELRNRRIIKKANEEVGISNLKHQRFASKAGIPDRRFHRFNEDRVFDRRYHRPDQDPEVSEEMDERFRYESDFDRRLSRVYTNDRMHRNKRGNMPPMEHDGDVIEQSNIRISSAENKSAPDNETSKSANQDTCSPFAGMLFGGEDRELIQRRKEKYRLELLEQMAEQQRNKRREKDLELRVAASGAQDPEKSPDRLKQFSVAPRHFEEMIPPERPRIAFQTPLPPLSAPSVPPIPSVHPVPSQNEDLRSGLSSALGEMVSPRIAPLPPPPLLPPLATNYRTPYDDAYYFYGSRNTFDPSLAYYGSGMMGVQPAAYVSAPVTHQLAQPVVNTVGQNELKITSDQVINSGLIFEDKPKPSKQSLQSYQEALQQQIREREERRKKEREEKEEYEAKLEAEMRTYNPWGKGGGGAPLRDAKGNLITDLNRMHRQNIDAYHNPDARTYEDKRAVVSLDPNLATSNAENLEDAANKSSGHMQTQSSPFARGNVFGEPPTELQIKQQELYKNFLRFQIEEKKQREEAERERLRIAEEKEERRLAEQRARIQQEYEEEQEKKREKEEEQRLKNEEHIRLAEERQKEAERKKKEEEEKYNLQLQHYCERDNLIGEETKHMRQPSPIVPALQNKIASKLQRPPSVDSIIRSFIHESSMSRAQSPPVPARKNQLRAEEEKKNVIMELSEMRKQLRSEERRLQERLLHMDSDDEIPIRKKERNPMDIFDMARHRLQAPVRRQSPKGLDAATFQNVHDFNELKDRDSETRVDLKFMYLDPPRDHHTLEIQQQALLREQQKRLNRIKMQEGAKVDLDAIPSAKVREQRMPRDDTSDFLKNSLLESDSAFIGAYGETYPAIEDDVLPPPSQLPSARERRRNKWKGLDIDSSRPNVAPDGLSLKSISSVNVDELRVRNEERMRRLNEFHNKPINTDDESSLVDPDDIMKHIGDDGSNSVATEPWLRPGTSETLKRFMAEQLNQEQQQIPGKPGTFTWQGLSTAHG
UniProt O94986: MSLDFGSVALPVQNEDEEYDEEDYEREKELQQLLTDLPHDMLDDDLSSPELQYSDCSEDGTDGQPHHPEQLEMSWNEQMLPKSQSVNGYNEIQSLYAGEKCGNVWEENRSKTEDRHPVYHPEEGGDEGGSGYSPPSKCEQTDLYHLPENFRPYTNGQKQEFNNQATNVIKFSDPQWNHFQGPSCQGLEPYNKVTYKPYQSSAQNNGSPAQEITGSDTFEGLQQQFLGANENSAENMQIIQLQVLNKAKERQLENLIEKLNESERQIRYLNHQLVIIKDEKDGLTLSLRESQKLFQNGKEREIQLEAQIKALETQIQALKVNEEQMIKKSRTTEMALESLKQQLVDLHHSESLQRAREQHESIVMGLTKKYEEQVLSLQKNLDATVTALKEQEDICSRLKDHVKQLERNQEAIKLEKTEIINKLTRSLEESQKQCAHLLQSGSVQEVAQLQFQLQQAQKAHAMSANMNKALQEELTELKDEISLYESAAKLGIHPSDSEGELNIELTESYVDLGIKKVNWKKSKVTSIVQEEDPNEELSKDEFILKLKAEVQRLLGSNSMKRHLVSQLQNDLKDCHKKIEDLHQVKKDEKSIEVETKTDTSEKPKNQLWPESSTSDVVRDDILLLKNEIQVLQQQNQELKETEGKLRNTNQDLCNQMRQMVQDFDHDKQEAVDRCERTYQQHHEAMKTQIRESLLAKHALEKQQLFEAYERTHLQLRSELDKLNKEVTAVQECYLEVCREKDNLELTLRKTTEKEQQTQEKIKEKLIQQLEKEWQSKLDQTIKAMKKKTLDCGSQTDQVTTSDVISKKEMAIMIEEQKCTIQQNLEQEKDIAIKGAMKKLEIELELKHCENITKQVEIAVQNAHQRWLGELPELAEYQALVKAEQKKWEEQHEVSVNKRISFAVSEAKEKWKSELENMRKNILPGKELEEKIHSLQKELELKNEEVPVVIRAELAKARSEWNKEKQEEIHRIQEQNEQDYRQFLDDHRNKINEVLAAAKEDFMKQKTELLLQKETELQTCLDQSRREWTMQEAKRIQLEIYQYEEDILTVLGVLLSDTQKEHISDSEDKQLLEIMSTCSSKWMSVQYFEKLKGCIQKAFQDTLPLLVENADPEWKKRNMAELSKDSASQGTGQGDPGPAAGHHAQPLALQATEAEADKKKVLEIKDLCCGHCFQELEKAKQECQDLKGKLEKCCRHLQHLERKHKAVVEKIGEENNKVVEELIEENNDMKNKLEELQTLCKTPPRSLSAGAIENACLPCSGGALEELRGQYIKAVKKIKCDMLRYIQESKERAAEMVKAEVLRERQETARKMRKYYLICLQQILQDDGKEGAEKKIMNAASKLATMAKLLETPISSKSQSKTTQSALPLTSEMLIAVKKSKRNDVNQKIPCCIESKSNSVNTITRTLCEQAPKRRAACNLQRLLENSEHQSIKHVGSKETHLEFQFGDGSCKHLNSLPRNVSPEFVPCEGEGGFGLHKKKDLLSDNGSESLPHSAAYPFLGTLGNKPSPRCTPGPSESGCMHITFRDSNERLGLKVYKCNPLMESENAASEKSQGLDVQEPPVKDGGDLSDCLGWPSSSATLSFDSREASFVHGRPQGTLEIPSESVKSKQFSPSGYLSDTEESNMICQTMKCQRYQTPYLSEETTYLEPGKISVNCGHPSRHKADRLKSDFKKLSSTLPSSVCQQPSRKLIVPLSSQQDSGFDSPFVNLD
UniProt Q9HAW4: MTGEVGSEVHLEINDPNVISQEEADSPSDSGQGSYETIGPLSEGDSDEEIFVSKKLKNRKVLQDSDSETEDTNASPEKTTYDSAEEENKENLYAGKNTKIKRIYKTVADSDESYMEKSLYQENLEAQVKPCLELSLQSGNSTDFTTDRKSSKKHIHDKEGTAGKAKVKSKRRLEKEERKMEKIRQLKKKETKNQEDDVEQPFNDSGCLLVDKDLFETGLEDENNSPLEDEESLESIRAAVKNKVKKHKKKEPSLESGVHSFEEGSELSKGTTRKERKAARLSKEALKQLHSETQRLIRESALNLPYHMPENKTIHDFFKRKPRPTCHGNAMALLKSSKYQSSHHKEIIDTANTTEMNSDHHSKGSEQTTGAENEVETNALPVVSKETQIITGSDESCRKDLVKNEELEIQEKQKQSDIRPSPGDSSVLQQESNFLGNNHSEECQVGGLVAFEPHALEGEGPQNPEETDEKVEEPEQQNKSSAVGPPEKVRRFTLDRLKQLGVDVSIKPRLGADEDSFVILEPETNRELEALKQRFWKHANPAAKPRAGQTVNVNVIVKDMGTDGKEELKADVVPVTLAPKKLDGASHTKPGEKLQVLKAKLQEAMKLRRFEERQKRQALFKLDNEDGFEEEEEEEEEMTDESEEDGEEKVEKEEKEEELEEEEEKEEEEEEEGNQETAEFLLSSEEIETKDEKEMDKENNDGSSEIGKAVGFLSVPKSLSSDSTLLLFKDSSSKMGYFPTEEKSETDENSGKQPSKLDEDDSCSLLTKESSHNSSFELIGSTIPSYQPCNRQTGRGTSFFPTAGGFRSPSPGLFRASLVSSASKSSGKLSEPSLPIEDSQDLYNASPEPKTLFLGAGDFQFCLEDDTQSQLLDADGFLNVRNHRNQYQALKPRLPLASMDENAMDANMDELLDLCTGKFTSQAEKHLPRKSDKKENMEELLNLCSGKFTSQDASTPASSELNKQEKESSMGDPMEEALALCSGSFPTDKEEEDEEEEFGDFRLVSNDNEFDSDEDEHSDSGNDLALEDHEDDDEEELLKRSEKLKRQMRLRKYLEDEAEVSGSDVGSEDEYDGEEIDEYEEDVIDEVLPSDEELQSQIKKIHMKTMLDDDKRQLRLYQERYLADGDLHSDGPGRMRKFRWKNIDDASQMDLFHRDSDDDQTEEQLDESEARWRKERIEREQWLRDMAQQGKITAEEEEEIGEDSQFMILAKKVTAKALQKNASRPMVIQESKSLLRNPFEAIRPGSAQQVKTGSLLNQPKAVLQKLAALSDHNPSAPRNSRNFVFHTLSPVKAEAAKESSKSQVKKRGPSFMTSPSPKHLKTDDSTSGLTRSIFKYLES

According to publication PMC9867282:

T1: FLAG-BirA*-CCP6 (cytosolic carboxypeptidase 6 fused to FLAG-tagged BirA*) (human) (UniProt Q5VU57)
T1 sequence: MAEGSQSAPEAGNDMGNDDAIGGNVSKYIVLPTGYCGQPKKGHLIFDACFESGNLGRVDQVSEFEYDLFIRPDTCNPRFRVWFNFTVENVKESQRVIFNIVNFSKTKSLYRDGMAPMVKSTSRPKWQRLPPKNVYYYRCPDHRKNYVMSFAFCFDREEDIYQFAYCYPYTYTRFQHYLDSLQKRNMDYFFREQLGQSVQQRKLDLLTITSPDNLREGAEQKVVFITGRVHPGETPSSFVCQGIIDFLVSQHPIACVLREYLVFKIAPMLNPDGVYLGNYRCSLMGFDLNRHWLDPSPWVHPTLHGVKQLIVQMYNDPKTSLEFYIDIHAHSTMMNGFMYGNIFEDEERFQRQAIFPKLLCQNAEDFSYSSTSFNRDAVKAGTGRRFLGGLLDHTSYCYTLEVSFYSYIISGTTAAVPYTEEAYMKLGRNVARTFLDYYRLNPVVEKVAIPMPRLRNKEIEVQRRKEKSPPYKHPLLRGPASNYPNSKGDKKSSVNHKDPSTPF

B1: SSX2IP (protein, UniProt Q9Y2D8 1-614)
chain: MGDWMTVTDPGLSSESKTISQYTSETKMSPSSLYSQQVLCSSIPLSKNVHSFFSAFCTEDNIEQSISYLDQELTTFGFPSLYEESKGKETKRELNIVAVLNCMNELLVLQRKNLLAQENVETQNLKLGSDMDHLQSCYSKLKEQLETSRREMIGLQERDRQLQCKNRNLHQLLKNEKDEVQKLQNIIASRATQYNHDMKRKEREYNKLKERLHQLVMNKKDKKIAMDILNYVGRADGKRGSWRTGKTEARNEDEMYKILLNDYEYRQKQILMENAELKKVLQQMKKEMISLLSPQKKKPRERVDDSTGTVISDVEEDAGELSRESMWDLSCETVREQLTNSIRKQWRILKSHVEKLDNQVSKVHLEGFNDEDVISRQDHEQETEKLELEIQQCKEMIKTQQQLLQQQLATAYDDDTTSLLRDCYLLEEKERLKEEWSLFKEQKKNFERERRSFTEAAIRLGLERKAFEEERASWLKQQFLNMTTFDHQNSENVKLFSAFSGSSDWDNLIVHSRQPQKKPHSVSNGSPVCMSKLTKSLPASPSTSDFCQTRSCISEHSSINVLNITAEEIKPNQVGGECTNQKWSVASRPGSQEGCYSGCSLSYTNSHVEKDDLP
B2: OFD1 (protein, UniProt O75665 1-1012)
chain: MMAQSNMFTVADVLSQDELRKKLYQTFKDRGILDTLKTQLRNQLIHELMHPVLSGELQPRSISVEGSSLLIGASNSLVADHLQRCGYEYSLSVFFPESGLAKEKVFTMQDLLQLIKINPTSSLYKSLVSGSDKENQKGFLMHFLKELAEYHQAKESCNMETQTSSTFNRDSLAEKLQLIDDQFADAYPQRIKFESLEIKLNEYKREIEEQLRAEMCQKLKFFKDTEIAKIKMEAKKKYEKELTMFQNDFEKACQAKSEALVLREKSTLERIHKHQEIETKEIYAQRQLLLKDMDLLRGREAELKQRVEAFELNQKLQEEKHKSITEALRRQEQNIKSFEETYDRKLKNELLKYQLELKDDYIIRTNRLIEDERKNKEKAVHLQEELIAINSKKEELNQSVNRVKELELELESVKAQSLAITKQNHMLNEKVKEMSDYSLLKEEKLELLAQNKLLKQQLEESRNENLRLLNRLAQPAPELAVFQKELRKAEKAIVVEHEEFESCRQALHKQLQDEIEHSAQLKAQILGYKASVKSLTTQVADLKLQLKQTQTALENEVYCNPKQSVIDRSVNGLINGNVVPCNGEISGDFLNNPFKQENVLARMVASRITNYPTAWVEGSSPDSDLEFVANTKARVKELQQEAERLEKAFRSYHRRVIKNSAKSPLAAKSPPSLHLLEAFKNITSSSPERHIFGEDRVVSEQPQVGTLEERNDVVEALTGSAASRLRGGTSSRRLSSTPLPKAKRSLESEMYLEGLGRSHIASPSPCPDRMPLPSPTESRHSLSIPPVSSPPEQKVGLYRRQTELQDKSEFSDVDKLAFKDNEEFESSFESAGNMPRQLEMGGLSPAGDMSHVDAAAAAVPLSYQHPSVDQKQIEEQKEEEKIREQQVKERRQREERRQSNLQEVLERERRELEKLYQERKMIEESLKIKIKKELEMENELEMSNQEIKDKSAHSENPLEKYMKIIQQEQDQESADKSSKKMVQEGSLVDTLQSSDKVESLTGFSHEELDDSW
B3: NUDCD3 (protein, UniProt Q8IVD9 1-361)
chain: METGAAELYDQALLGILQHVGNVQDFLRVLFGFLYRKTDFYRLLRHPSDRMGFPPGAAQALVLQVFKTFDHMARQDDEKRRQELEEKIRRKEEEEAKTVSAAAAEKEPVPVPVQEIEIDSTTELDGHQEVEKVQPPGPVKEMAHGSQEAEAPGAVAGAAEVPREPPILPRIQEQFQKNPDSYNGAVRENYTWSQDYTDLEVRVPVPKHVVKGKQVSVALSSSSIRVAMLEENGERVLMEGKLTHKINTESSLWSLEPGKCVLVNLSKVGEYWWNAILEGEEPIDIDKINKERSMATVDEEEQAVLDRLTFDYHQKLQGKPQSHELKVHEMLKKGWDAEGSPFRGQRFDPAMFNISPGAVQF
B4: CEP131 (protein, UniProt Q9UPN4 1-1083)
chain: MKGTRAIGSVPERSPAGVDLSLTGLPPPVSRRPGSAATTKPIVRSVSVVTGSEQKRKVLEATGPGGSQAINNLRRSNSTTQVSQPRSGSPRPTEPTDFLMLFEGSPSGKKRPASLSTAPSEKGATWNVLDDQPRGFTLPSNARSSSALDSPAGPRRKECTVALAPNFTANNRSNKGAVGNCVTTMVHNRYTPSERAPPLKSSNQTAPSLNNIIKAATCEGSESSGFGKLPKNVSSATHSARNNTGGSTGLPRRKEVTEEEAERFIHQVNQATVTIQRWYRHQVQRRGAGAARLEHLLQAKREEQRQRSGEGTLLDLHQQKEAARRKAREEKARQARRAAIQELQQKRALRAQKASTAERGPPENPRETRVPGMRQPAQELSPTPGGTAHQALKANNTGGGLPAAGPGDRCLPTSDSSPEPQQPPEDRTQDVLAQDAAGDNLEMMAPSRGSAKSRGPLEELLHTLQLLEKEPDVLPRPRTHHRGRYAWASEVTTEDDASSLTADNLEKFGKLSAFPEPPEDGTLLSEAKLQSIMSFLDEMEKSGQDQLDSQQEGWVPEAGPGPLELGSEVSTSVMRLKLEVEEKKQAMLLLQRALAQQRDLTARRVKETEKALSRQLQRQREHYEATIQRHLAFIDQLIEDKKVLSEKCEAVVAELKQEDQRCTERVAQAQAQHELEIKKLKELMSATEKARREKWISEKTKKIKEVTVRGLEPEIQKLIARHKQEVRRLKSLHEAELLQSDERASQRCLRQAEELREQLEREKEALGQQERERARQRFQQHLEQEQWALQQQRQRLYSEVAEERERLGQQAARQRAELEELRQQLEESSSALTRALRAEFEKGREEQERRHQMELNTLKQQLELERQAWEAGRTRKEEAWLLNREQELREEIRKGRDKEIELVIHRLEADMALAKEESEKAAESRIKRLRDKYEAELSELEQSERKLQERCSELKGQLGEAEGENLRLQGLVRQKERALEDAQAVNEQLSSERSNLAQVIRQEFEDRLAASEEETRQAKAELATLQARQQLELEEVHRRVKTALARKEEAVSSLRTQHEAAVKRADHLEELLEQHRRPTPSTK

biological target: T1, FLAG-BirA*-CCP6 (cytosolic carboxypeptidase 6 fused to FLAG-tagged BirA*) (human); test: proximity labelling; BioID in Flp-In T-REX 293 stable cell pools expressing BirA*-CCP6; tetracycline 1 ug/mL 24 h, then 50 uM biotin 24 h; lysis in 2% SDS, 8 M urea; streptavidin agarose, on-bead trypsin, LC-MS/MS, LFQ; enrichment against GFP-BirA* (t-test, FDR 0.05); three biological replicates

binding, binds:
C2CD3 (from UniProt Q4AC94 1-2353)
CSPP1 (from UniProt Q1MSJ5 1-1256)
CEP152 (from UniProt O94986 1-1710)
CEP350 (from UniProt Q5VT06 1-3117)
CLSPN (from UniProt Q9HAW4 1-1339)
CEP192 (from UniProt Q8TEP8 1-2537)

biological target: T1, FLAG-BirA*-CCP6 (cytosolic carboxypeptidase 6 fused to FLAG-tagged BirA*) (human); test: as above; remark: another data set of the same source

binding, binds:
B1
B2
B3
B4

Results are given in words; binding and its absence hold for the method and conditions named. In cells and extracts the contact can be indirect. A yes stands for co-enrichment or nearness to the bait. Other partners may have been found. Where a sequence is shown, tags or fusion partners need not be part of it.
